Results published in paper PMC7664263.
No constants are given. Whether binding was seen depends on the method and setting. Binding seen in cells or lysates may run through a third protein. Some results given as binding are weak or reduced against the parent protein; the word gives no strength. For some of these results: Tags and fused reporters may be left off the sequences shown.

Protein sequences, listed by entry. Tags and fused reporters are not part of them.
UniProt Q14980: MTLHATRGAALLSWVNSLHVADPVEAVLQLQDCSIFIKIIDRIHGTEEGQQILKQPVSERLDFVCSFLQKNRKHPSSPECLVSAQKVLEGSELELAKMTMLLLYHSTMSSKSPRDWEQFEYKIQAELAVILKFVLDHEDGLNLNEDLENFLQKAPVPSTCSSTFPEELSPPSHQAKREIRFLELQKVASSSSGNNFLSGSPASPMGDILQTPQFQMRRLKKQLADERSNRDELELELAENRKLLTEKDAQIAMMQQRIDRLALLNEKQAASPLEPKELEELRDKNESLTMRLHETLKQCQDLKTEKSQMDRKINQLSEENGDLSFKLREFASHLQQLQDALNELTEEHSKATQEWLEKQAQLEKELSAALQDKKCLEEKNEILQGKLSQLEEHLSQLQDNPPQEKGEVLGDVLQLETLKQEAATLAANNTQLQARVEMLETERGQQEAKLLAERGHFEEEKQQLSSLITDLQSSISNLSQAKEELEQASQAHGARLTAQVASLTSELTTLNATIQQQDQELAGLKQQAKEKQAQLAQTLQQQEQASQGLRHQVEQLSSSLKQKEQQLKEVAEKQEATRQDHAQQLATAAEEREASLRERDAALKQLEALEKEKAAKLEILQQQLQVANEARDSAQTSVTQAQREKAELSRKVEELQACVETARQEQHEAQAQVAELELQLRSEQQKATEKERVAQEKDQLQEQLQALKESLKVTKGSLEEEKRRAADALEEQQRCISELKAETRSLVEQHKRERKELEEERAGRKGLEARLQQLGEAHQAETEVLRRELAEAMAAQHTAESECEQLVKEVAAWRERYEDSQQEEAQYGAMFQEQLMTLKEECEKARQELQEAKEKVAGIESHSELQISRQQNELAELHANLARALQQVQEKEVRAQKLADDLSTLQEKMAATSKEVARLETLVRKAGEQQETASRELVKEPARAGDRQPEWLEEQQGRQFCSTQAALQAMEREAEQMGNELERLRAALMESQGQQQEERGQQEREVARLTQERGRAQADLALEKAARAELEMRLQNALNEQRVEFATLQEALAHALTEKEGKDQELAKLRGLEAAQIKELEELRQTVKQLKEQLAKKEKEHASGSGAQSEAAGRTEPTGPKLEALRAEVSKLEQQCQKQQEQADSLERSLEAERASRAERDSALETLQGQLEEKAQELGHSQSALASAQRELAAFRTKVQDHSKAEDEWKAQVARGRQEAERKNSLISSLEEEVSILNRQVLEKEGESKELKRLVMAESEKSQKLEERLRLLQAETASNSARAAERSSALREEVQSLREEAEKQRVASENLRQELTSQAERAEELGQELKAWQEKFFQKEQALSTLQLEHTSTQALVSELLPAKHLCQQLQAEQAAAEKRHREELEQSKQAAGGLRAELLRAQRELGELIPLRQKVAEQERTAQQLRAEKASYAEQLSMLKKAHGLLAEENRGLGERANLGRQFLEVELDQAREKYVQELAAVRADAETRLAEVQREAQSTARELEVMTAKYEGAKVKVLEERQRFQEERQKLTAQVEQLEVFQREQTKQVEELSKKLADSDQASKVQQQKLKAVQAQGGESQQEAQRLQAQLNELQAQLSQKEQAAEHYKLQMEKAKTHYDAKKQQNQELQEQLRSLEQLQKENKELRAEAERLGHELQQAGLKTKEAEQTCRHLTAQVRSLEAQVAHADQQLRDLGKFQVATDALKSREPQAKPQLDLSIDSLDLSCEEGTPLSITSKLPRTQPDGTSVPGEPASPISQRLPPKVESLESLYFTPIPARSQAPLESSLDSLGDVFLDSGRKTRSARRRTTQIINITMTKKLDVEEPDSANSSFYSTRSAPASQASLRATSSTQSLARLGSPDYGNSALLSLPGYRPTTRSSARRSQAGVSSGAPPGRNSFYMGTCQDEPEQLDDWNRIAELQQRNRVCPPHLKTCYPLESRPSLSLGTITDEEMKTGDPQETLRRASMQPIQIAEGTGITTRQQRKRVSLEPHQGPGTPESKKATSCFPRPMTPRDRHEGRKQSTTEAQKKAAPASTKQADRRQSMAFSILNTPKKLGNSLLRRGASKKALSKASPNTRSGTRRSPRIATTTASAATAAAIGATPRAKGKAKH
UniProt P08754: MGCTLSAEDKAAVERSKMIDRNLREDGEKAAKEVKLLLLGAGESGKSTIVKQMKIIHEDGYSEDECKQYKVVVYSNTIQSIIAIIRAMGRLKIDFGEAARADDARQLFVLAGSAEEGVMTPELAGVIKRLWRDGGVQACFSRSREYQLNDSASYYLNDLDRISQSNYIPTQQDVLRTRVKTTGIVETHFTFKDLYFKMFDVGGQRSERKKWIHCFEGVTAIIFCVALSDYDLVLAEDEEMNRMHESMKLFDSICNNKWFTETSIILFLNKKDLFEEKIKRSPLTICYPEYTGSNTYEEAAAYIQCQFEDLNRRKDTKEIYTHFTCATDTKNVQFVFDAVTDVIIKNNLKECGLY

Assays:
[1] = target: T1, activator of G protein signaling 3 (AGS3), endogenous in ENStem-A cells (human (endogenous in ENStem-A)) (UniProt Q86YR5); experiment: co-IP; endogenous proteins; lysates of ENStem-A cells after 7 days of differentiation (Day 0 sample run alongside), equivalent amount of AGS3; anti-AGS3 antiserum, then protein G agarose; Western blot with antisera against Gαi2, Gαi3 or NuMA
T1 sequence: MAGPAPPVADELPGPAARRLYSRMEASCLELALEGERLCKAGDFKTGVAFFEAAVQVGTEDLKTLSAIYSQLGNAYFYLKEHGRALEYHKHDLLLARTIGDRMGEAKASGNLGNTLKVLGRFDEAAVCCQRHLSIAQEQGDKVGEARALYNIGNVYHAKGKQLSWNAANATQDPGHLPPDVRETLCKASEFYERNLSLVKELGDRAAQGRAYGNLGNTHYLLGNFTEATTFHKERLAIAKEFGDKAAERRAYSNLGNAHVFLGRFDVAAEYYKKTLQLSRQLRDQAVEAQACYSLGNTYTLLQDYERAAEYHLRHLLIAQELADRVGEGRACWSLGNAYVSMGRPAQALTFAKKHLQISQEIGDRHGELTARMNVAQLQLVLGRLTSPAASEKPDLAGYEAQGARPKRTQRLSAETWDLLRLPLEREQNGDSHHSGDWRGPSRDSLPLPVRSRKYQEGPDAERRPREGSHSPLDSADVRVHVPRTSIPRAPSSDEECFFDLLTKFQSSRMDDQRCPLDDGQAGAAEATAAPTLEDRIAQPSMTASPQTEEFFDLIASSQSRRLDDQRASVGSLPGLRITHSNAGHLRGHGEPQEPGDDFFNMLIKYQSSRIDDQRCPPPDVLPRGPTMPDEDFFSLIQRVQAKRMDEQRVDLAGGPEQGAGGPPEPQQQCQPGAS

HA-tagged NuMA = HA-tagged NuMA (UniProt Q14980); experiment: co-IP; HEK293 cells transiently co-transfected with a tagged bait (GST-AGS3, GFP-LGN, HA-NuMA or HA-Ric-8A) and Gαi2 or Gαi3; cells with or without PTX (100 ng/mL, 16 h); lysates untreated or treated with GDPβS or GTPγS (100 μM, 6 h at 4 °C); anti-GST or anti-GFP antisera with protein G agarose, or anti-HA agarose; Western blot (Figure 4B-D)
[2] = target: T2, HA-tagged mouse Ric-8A (mouse) (UniProt Q3TIR3); experiment: as above
T2 sequence: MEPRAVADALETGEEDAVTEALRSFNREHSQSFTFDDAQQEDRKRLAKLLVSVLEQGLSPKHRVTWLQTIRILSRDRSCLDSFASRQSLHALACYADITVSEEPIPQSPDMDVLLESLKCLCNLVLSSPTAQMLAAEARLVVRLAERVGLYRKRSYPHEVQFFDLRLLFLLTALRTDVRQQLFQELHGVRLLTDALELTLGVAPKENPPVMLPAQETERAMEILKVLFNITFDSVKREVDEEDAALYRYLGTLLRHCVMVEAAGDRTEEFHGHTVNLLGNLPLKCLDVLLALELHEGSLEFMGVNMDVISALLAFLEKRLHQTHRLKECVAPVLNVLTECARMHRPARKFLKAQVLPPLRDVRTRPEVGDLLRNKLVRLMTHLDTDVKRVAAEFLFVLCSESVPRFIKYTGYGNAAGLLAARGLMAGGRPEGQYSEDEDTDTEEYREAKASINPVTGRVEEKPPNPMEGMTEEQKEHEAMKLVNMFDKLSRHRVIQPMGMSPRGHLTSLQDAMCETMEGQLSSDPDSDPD

GFP-tagged LGN = target: T3, GFP-tagged LGN (UniProt P81274); experiment: as above
T3 sequence: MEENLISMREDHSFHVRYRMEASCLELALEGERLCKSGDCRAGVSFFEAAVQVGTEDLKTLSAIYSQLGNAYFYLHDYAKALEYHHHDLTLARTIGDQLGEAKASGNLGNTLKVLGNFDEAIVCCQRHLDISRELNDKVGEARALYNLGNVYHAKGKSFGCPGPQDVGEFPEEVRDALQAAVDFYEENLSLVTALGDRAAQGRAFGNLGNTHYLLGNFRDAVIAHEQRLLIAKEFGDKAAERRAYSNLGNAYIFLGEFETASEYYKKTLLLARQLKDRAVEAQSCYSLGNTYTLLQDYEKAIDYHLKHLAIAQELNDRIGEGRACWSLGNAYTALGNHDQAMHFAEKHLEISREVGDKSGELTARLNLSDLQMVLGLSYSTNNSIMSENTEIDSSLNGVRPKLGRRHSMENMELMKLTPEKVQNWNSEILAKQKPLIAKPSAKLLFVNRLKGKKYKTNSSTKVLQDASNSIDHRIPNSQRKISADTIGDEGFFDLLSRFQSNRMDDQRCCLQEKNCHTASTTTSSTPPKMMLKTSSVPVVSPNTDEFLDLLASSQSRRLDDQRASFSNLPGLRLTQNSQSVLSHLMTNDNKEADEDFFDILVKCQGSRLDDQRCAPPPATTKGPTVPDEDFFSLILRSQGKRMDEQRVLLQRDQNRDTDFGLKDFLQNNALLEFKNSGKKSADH

binding [1]	binding (HA-tagged NuMA)	binding [2]	binding (GFP-tagged LGN)	Substance
binds	–	–	–	nuclear mitotic apparatus (NuMA), endogenous in ENStem-A cells (from UniProt Q14980 1-2115)
–	no binding	binds	binds	Gαi3 subunit, overexpressed in HEK293 cells (from UniProt P08754 1-354)
